From PubChem BioAssay AID326 (DTP/NCI, 2004)
The list shows only some results of the screen, not a fair sample: it is rich in T/C values a quarter to a half above the control, in often repeated tests (any T/C) and in doses without a T/C. Other doses and runs of a compound stand elsewhere. T/C gives the treated animals as a percentage of the vehicle group. Some doses have a count of surviving animals in place of a T/C: the source files T/C as zero there, which appears to mark a toxic dose or a test without result, not a measured value. Survivors were counted at the toxicity check, usually on the fifth day, unless a day is given; later deaths do not show. Schedule codes are those of the source, read here as Q, the interval in days (D) or hours (H), X, the number of doses. Where survival is the endpoint, this PubChem deposit counts one and a half times the control or more as active, and values a quarter to a half above the control carry no call in these data; other NCI protocols may use other cut-offs.

Tested on: CD2F1 mice, P388/DHAQ leukemia ip, median survival T/C
Assay: NCI In Vivo Anticancer Drug Screen. Data for tumor model P388 Leukemia resistant to Dihydroxy Anthracenedione; NSC 299195 (intraperitoneal) in CD2F1 (CDF1) mice
Conditions: T/C endpoint: median survival time, schedule: Q04DX003 (ip), vehicle: saline + alcohol, higher T/C = longer survival
Procedure: The antitumor activity of compounds was measured in mice bearing transplantable tumors. Survival or tumor size were measured and the results are expressed as the measurement made in the treated group (T) divided by the measurement made in the vehicle treated control group (C). The tumor model used in this assay is P388 Leukemia resistant to Dihydroxy Anthracenedione; NSC 299195 (intraperitoneal) in CD2F1 (CDF1) mice

CO[C@H]1Nc2c(ccc(C)c2O)C(=O)N2C=C(/C=C/C(N)=O)C[C@@H]12
T/C (dose: 0.22 mg/kg/injection): 130 % of control | T/C (dose: 0.36 mg/kg/injection): 139 % of control | T/C (dose: 0.6 mg/kg/injection): 137 % of control | survivor count (dose: 1.0 mg/kg/injection): 5 of 8
